Values quoted from earlier work, collected in patent EP0226588B1, “Process for preparation of a solid form for oral use based on nifedipine with controlled release of the active substance” (PHARMATEC INTERNATIONAL S.r.l., priority 1984, dated 1986).
For at least one compound, name, drawing or mass did not settle the structure.

Structure (SMILES): COC(=O)C1=C(C)NC(C)=C(C(=O)OC)C1c1ccccc1[N+](=O)[O-] [nifedipine, 4-(2'-nitropyridine)-3,5-dicarboxylic acid methyl ester]
- blood concentrations effective in the treatment of arterial hypertension (in vivo): 20-80 g/ml
- plasma levels effective to prevent and treat attacks of angina pectoris (reached in a short time): 100-200 g/ml
